These are yes or no findings as the source states them, for the method shown. In cells and extracts the contact can be indirect. Some results given as binding are weak or reduced against the parent protein; the word gives no strength.
Experiments:
[1] = target: T1, desmoglein 2 (mouse (endogenous in HL-1)) (UniProt O55111); assay: co-IP
T1 sequence: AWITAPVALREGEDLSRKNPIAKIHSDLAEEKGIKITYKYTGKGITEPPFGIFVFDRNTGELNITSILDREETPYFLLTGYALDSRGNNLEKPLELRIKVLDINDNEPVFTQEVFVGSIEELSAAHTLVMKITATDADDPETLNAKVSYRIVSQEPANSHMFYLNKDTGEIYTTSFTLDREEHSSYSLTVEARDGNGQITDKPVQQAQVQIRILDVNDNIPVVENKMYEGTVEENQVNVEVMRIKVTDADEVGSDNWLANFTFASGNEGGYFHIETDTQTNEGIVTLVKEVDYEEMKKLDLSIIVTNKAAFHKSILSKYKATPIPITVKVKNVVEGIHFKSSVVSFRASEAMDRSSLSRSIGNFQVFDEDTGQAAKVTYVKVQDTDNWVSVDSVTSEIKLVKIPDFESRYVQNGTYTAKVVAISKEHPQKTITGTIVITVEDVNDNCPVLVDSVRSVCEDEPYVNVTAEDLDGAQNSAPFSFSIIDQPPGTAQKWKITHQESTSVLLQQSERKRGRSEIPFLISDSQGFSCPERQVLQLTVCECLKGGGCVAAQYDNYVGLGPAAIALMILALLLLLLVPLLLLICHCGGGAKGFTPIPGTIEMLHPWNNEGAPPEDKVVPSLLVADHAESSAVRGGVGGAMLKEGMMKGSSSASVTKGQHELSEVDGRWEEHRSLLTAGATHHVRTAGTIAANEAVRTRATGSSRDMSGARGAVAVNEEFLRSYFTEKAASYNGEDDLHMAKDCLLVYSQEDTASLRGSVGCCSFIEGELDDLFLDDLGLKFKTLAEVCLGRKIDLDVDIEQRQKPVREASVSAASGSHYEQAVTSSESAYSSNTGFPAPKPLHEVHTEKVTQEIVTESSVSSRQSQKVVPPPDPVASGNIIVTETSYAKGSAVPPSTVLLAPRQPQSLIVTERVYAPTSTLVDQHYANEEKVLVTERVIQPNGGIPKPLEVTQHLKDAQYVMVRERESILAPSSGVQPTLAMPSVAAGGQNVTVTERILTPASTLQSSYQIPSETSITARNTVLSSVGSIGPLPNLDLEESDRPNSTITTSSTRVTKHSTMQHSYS

By UniProt entry, the sequences of proteins in these tests, tags left out.
UniProt E9Q557: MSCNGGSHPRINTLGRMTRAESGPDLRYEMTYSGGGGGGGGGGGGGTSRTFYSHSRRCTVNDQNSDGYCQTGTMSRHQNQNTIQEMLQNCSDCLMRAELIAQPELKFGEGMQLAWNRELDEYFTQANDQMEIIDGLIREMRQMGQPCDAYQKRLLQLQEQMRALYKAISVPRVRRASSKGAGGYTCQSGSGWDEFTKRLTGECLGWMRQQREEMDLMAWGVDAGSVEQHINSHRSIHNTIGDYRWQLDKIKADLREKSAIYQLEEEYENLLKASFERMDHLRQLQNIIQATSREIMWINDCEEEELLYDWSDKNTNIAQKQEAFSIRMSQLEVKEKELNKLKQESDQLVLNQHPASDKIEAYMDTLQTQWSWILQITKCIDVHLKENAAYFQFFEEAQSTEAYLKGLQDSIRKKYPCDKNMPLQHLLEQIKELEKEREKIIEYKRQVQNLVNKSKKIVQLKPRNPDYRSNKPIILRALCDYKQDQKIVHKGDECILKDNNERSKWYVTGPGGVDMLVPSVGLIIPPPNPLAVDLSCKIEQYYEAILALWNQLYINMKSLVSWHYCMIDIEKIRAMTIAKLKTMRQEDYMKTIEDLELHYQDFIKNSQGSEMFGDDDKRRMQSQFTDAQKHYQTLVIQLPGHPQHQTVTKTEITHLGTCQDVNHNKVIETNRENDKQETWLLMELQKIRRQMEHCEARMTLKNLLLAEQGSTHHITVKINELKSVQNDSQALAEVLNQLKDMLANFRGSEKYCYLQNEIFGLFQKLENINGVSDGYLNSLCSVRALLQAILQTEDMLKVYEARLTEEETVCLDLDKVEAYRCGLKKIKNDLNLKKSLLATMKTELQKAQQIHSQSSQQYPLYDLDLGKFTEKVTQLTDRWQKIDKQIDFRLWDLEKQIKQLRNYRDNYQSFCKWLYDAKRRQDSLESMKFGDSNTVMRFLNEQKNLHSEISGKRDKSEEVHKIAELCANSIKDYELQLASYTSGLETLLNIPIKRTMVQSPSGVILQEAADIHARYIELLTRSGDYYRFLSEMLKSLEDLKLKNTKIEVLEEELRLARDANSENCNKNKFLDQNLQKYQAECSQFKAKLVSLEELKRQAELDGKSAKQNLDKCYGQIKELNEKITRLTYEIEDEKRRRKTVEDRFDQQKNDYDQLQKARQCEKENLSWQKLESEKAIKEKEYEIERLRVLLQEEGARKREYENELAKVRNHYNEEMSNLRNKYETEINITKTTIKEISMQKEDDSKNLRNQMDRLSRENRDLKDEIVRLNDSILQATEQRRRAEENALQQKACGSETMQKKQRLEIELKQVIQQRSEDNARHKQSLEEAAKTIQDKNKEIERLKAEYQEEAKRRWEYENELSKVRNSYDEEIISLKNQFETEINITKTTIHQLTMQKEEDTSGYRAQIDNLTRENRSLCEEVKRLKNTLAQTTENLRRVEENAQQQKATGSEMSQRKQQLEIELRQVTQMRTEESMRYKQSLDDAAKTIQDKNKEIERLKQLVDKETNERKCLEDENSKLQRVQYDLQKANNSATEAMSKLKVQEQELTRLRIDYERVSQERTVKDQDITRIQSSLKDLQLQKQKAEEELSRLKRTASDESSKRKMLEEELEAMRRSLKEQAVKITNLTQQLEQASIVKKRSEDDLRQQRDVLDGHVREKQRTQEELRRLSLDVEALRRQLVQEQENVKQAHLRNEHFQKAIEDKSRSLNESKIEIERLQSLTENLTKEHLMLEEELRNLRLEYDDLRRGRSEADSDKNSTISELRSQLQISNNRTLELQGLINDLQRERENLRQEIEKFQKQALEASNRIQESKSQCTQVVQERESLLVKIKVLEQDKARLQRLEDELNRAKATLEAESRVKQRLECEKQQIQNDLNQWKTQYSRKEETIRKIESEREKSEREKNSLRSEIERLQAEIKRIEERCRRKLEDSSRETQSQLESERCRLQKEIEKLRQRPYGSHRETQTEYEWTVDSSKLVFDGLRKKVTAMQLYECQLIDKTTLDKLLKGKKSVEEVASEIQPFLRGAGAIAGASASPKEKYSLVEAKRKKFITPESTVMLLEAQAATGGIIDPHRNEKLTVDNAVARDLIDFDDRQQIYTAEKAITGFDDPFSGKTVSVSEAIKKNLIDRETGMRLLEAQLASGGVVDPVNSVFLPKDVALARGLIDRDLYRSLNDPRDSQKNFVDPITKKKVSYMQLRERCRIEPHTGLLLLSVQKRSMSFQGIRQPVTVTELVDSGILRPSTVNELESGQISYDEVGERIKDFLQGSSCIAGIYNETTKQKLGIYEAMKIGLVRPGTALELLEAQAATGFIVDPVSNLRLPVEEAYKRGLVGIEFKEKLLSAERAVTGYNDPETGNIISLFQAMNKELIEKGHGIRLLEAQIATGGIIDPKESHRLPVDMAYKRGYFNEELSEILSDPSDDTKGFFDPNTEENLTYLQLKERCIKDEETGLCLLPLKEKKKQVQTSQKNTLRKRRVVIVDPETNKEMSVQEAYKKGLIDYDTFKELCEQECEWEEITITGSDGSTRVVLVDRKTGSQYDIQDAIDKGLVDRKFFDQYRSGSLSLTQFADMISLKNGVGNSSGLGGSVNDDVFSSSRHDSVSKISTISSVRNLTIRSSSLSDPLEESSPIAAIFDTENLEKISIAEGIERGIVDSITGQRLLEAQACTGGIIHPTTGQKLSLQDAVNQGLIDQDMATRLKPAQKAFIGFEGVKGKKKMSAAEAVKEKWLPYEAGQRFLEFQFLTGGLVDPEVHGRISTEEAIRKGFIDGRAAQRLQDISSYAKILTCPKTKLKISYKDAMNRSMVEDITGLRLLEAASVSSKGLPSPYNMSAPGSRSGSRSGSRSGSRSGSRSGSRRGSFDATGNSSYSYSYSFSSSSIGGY

[2] = target: desmoplakin (mouse (endogenous in HL-1)) (UniProt E9Q557); assay: co-IP

binding [1]: binds | binding [2]: binds
Substance: epidermal growth factor receptor (from UniProt Q01279 25-1210)
